Results reported in article PMC4957052 (The Journal of Biological Chemistry, 2016).
Results are given in words; binding and its absence hold for the method and conditions named. Some entries that bind do so weakly or less than the wild type.

Target: T1, mouse β-catenin (GST cleaved) (mouse, UniProt Q02248 1-781)
T1 construct: β-catenin, mouse; Probably the construct of m7 (full length) after TEV cleavage; source: E. coli BL21(DE3), purified (glutathione-agarose, TEV cleavage, Mono Q, S200 gel filtration)
T1 sequence (looked up): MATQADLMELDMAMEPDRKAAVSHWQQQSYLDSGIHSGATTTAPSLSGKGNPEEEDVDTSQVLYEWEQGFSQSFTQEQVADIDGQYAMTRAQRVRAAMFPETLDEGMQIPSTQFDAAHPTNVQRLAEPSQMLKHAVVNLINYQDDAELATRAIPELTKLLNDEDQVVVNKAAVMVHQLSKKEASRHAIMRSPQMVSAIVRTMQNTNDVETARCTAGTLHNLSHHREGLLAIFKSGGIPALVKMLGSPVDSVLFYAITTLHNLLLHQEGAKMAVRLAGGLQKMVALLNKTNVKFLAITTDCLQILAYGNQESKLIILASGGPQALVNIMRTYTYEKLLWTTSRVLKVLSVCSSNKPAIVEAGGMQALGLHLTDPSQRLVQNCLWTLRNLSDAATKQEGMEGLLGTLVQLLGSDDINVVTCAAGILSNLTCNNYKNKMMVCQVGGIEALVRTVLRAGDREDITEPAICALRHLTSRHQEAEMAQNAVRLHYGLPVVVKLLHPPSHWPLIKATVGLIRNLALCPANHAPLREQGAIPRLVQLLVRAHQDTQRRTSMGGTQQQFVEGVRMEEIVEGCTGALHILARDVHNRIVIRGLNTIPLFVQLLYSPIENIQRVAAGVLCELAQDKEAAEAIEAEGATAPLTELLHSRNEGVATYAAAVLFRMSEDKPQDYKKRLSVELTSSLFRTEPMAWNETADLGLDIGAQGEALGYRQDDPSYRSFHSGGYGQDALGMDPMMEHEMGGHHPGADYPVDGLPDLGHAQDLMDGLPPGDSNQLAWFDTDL
Assay: SEC; purified mouse β-catenin mixed with αT-catenin; complex isolated by SEC; both purified

B1: M. musculus αT-catenin (wild type, full length) (natural protein, UniProt Q65CL1 1-895, looked up)
chain: MSAETPITLNMDTQDLQIQTFTVEKLLEPLIIQVTTLVNCPQNPSNRKKGRSKRARVLLASVEEATWNLLDKGEMIAKEATVLKEELAAALQEVRKESKALKVSAERFTDDPCYLPKREAVVQAARALLAAVTRLLVLADMIDVMCLLQHVSSFQRTFESLKNVSNKSDLQRTYQKLGKELESLDYLAFKRQQDLKSPSQRDEIAGARATLKENSPLLHSICSACLEHSDVASLKASKDTVCEEIQNALDVISNASQGIQNAPAPPEPQAATLGSAFDELENLIVLNPLTVTEEDVRPSLEKRLEAIISGAALLADSSCTRDLHRERIIAECNAIRQALQDLLTEYMSNTGKTERSNTLNTAIVNMSKKTRDLRRQLRKAIIDHISDSFLDTTVPLLVLIEAAKNGRVKEIKDYAAIFHEHTGRLVEVANLACSMSTNEDGIKIVRIAANHLETLCPQIINAALALASRPKSQVVKNTMEMYKRTWEHYIHVLTEAVDDITSIDDFLAVSESHILEDVNKCIIALRDQDADNLDRAAGAIRGRAARVAHIVAGEMDSYEPGAYTEGVMRNVNFLTSTVIPEFVTQVNVALDALSKNSLTALDDNQFVDISKKIYDTIHDIRCSVMMIRTPEELEDVSDLEDDHEVRSHTSIQTEGKTDRAKMTQLPEAEKEKIAEQVADFKKVKSKLDAEIEIWDDTSNDIIVLAKKMCMIMMEMTDFTRGKGPLKHTTDVIYAAKMISESGSRMDVLARQIANQCPDPPCKQDLLAYLEQIKFYSHQLKICSQVKAEIQNLGGELIVSALDSVTSLIQAAKNLMNAVVQTVKMSYIASTKIIRIQSSAGPRHPVVMWRMKAPAKKPLIKREKPEETWAAVRRGSAKKKIHPVQVMSEFRGRQVY
notes: Cloned into pGEX-TEV; cleaved from GST with tobacco etch virus protease; also called αT (testes)-catenin; WT αT-catenin; source: E. coli BL21(DE3), purified (glutathione-agarose, TEV cleavage, Mono Q, S200 gel filtration)
- binding: binds
